Data: patent US20250241308A1, “COMPOSITIONS AND METHODS FOR CONTROLLING PESTS” (PYRONE SYSTEMS, INC., priority 2022, published 2025)

How the values were obtained:
Type in all cases: in vivo
[1] = tested on: house fly strain CAR21 (S); assay: Median lethal dose determination, house fly CAR21
Experimental: (§1) 24-hour median lethal dose determinations of pogostone and permethrin were performed in three house fly strains and one stable fly strain. The KS17 resistant strain below is simultaneously resistant to organophosphates, carbamates, and synthetic pyrethroids.
(§2) 48-hour median lethal dose determinations of pogostone and permethrin were performed in three house fly strains. The KS17 resistant strain below is simultaneously resistant to organophosphates, carbamates, and synthetic pyrethroids.

house fly strain WHF (R) = assay: Median lethal dose determination, house fly WHF
Experimental: as §1, §2

[2] = tested on: house fly strain KS17 (R); assay: Median lethal dose determination, house fly KS17
Experimental: as §1, §2

Compound | Slope ([1]; 24-hour) | Slope ([1]; 48-hour) | Slope (house fly strain WHF (R); 24-hour) | Slope (house fly strain WHF (R); 48-hour) | Slope ([2]; 24-hour) | Slope ([2]; 48-hour)
CC1(C)C(C=C(Cl)Cl)C1C(=O)OCc1cccc(Oc2ccccc2)c1 (stereo not shown) [Permethrin] | 4.7 | 4.2 | 1.6 | 1.7 | – | –
Cc1cc(O)c(C(=O)CCC(C)C)c(=O)o1 [pogostone] | 4.6 | 4.7 | 2.7 | 2.9 | 3.1 | 3.4
